PubChem BioAssay AID1053208, Peter MacCallum Cancer Centre – 2014
The deposit covers about 17,000 reagents; below is an unselected part. Over the whole deposit, 788 (4.7%) were called active. 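Calls rest on z-score classes alone; an extra cut-off of viability at most 70% of control was not applied to them.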 Further read-outs or replicates are left out here.

Purpose: 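Synthetic lethal interactions between gene loss and doxorubicin in osteosarcoma cells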 (primary screen)
Cells: mouse osteosarcoma cells, early-passage culture from an engineered mouse model of fibroblastic bone tumour
Knock-down reagent: siRNA pool against mouse genes, 40 nM
Time to read-out: about 120 h (48 h before drug, then 72 h with drug)
Challenge: doxorubicin 100 nM for 72 h, roughly 30-40% inhibitory dose
Read-out: 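Luminescent ATP signal taken as viability with or without 100 nM doxorubicin for 72 h; mean of two wells set against non-targeting siRNA and turned into robust z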
Scale: viability z-score with doxorubicin: higher = more viable cells under doxorubicin; viability z-score without drug: higher = more viable cells with knock-down alone
Hit rule: 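a pool counts as active when its viability z-score with doxorubicin is -2 or below and its z-score without drug lies between -2 and 2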

Or6c88 (olfactory receptor family 6 subfamily C member 88) showed combined z-score class no change with or without drug; viability z-score with doxorubicin 0.45; viability z-score without drug -1.35; inactive.
Depletion of Or4c52 (olfactory receptor family 4 subfamily C member 52) came out at: combined z-score class no change with or without drug; viability z-score with doxorubicin -0.67; viability z-score without drug -0.51; inactive.
Erbb4 (erb-b2 receptor tyrosine kinase 4) scored combined z-score class no change with or without drug; viability z-score with doxorubicin 0.56; viability z-score without drug -0.34; inactive.
Slc1a5 scored combined z-score class no change with or without drug; viability z-score with doxorubicin 0.9; viability z-score without drug 0.51; inactive.
Pparg (peroxisome proliferator activated receptor gamma) showed combined z-score class no change with or without drug; viability z-score with doxorubicin 1.57; viability z-score without drug -0.51; inactive.
A330041J22Rik (RIKEN cDNA A330041J22 gene) gave combined z-score class no change with or without drug; viability z-score with doxorubicin 0.56; viability z-score without drug -1.69; inactive.
Oca2 (oculocutaneous albinism II) showed combined z-score class no change with or without drug; viability z-score with doxorubicin 0.45; viability z-score without drug -0.84; inactive.
Slc7a12 gave combined z-score class low cell count without drug only; viability z-score with doxorubicin -0.9; viability z-score without drug -2.7; inactive.
After knock-down of Hoxa13 (homeobox A13) the results were combined z-score class no change with or without drug; viability z-score with doxorubicin 0.56; viability z-score without drug -1.18; inactive.
Tll1 (tolloid-like) scored combined z-score class no change with or without drug; viability z-score with doxorubicin -1.12; viability z-score without drug -1.18; inactive.
Silencing of Mastl (microtubule associated serine/threonine kinase-like) came out at: combined z-score class no change with or without drug; viability z-score with doxorubicin -0.11; viability z-score without drug 0; inactive.
With knock-down of Zdhhc16 (zinc finger, DHHC domain containing 16), the screen gave combined z-score class no change with or without drug; viability z-score with doxorubicin 0.45; viability z-score without drug 1.18; inactive.
